Experimental data: the supplement of paper PMC4604168 (melanoma cell lines)
Some of the results follow. Repeats are few or missing, and single values can be far off.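 Imaging used 1,536-well plates; nuclei positive for cleaved PARP by antibody were divided by total DNA-stained nuclei to yield the apoptosis fraction. Doses for screening kept most cells viable, and cell lines differ markedly in resting and induced cleaved-PARP levels.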

Assays:
Experiment in all cases: cleaved PARP positive nuclei fraction relative to DMSO control; melanoma cells; higher = more apoptosis
Details in all cases: library dose: low library concentration; 72 h
501Mel = test system: 501Mel
A101D = test system: A101D
A2058 = test system: A2058
A375 = test system: A375
C32 = test system: C32
CBRC008 = test system: CBRC008 (line from a melanoma biopsy)
CBRC013 = test system: CBRC013 (line from a melanoma biopsy)
CBRC014 = test system: CBRC014 (line from a melanoma biopsy)
CBRC016 = test system: CBRC016 (line from a melanoma biopsy)
CBRC017 = test system: CBRC017 (line from a melanoma biopsy)
COLO792 = test system: COLO792
COLO800 = test system: COLO800
COLO829 = test system: COLO829
G361 = test system: G361
IPC-298 = test system: IPC-298
IST-MEL1 = test system: IST-MEL1
LB2518-MEL = test system: LB2518-MEL
LOXIMVI = test system: LOXIMVI
MEL-HO = test system: MEL-HO

Compound	cleaved PARP positive nuclei fraction (501Mel)	cleaved PARP positive nuclei fraction (A101D)	cleaved PARP positive nuclei fraction (A2058)	cleaved PARP positive nuclei fraction (A375)	cleaved PARP positive nuclei fraction (C32)	cleaved PARP positive nuclei fraction (CBRC008)	cleaved PARP positive nuclei fraction (CBRC013)	cleaved PARP positive nuclei fraction (CBRC014)	cleaved PARP positive nuclei fraction (CBRC016)	cleaved PARP positive nuclei fraction (CBRC017)	cleaved PARP positive nuclei fraction (COLO792)	cleaved PARP positive nuclei fraction (COLO800)	cleaved PARP positive nuclei fraction (COLO829)	cleaved PARP positive nuclei fraction (G361)	cleaved PARP positive nuclei fraction (IPC-298)	cleaved PARP positive nuclei fraction (IST-MEL1)	cleaved PARP positive nuclei fraction (LB2518-MEL)	cleaved PARP positive nuclei fraction (LOXIMVI)	cleaved PARP positive nuclei fraction (MEL-HO)
C=C(c1ccc(C(=O)O)cc1)c1cc2c(cc1C)C(C)(C)CCC2(C)C [Bexarotene] + NCC(=O)Nc1ccc(-n2nc(C(F)(F)F)cc2-c2ccc3c(ccc4ccccc43)c2)cc1 [OSU03012] (first compound 2 µM, partner dose 1 µM)	751%	214%	73.4%	4210%	120%	240%	220%	109%	89.8%	130%	72.8%	138%	38.4%	91.3%	109%	112%	114%	39.6%	56.7%
O=C(O)[C@@H]1[O][Sb](=[O])([O][Sb]2(=[O])[O][C@H]([C@H](O)CO)[C@H](O)[C@H](C(=O)O)[O]2)[O][C@H]([C@H](O)CO)[C@@H]1O (some centres undefined) [stibogluconate] + NCC(=O)Nc1ccc(-n2nc(C(F)(F)F)cc2-c2ccc3c(ccc4ccccc43)c2)cc1 [OSU03012] (first compound 2 µM, partner dose 1 µM)	96%	91.2%	107%	1570%	43.7%	51.3%	72.7%	75.1%	111%	115%	137%	89.2%	55.7%	75.4%	94.1%	67.9%	145%	70.1%	67.4%
Cc1cc(Nc2cc(N3CCN(C)CC3)nc(/C=C/c3ccccc3)n2)n[nH]1 + O=C(Nc1cccc(Cl)c1)Nc1ncc(CCNc2ncnc3ccsc23)s1 [SNS314] (first compound 0.04 µM, partner dose 0.0008 µM)	281%	87%	78.1%	63.1%	83%	56.8%	83.9%	76.7%	182%	114%	90.9%	97.5%	118%	85.4%	28%	127%	121%	112%	92%
Cc1cc(Nc2cc(N3CCN(C)CC3)nc(/C=C/c3ccccc3)n2)n[nH]1 + CC(C)(C)c1cnc(CSc2cnc(NC(=O)C3CCNCC3)s2)o1 [SNS-032] (first compound 0.04 µM, partner dose 0.01 µM)	175%	43%	228%	391%	77%	37.5%	125%	85.2%	129%	106%	47.1%	186%	110%	294%	92.7%	154%	353%	173%	127%
CNC(=O)c1cc(Oc2ccc(NC(=O)Nc3ccc(Cl)c(C(F)(F)F)c3)cc2)ccn1 [sorafenib] + O=C(O)c1ccc(-c2c[nH]c3ncc(-c4ccccc4)cc23)cc1C1CCCC1 [GSK650394] (first compound 0.4 µM, partner dose 0.16 µM)	71%	166%	93.2%	31.9%	106%	117%	145%	82.3%	178%	244%	49.5%	95%	91.1%	113%	187%	77.3%	77.9%	80.1%	266%
CCCS(=O)(=O)Nc1ccc(F)c(C(=O)c2c[nH]c3ncc(Cl)cc23)c1F + CO[C@@H]1[C@H](N(C)C(=O)c2ccccc2)C[C@H]2O[C@]1(C)n1c3ccccc3c3c4c(c5c6ccccc6n2c5c31)C(=O)NC4 [Midostaurin] (first compound 0.08 µM, partner dose 0.08 µM)	131%	149%	185%	156%	120%	146%	178%	32.1%	221%	84.9%	165%	232%	74.1%	101%	95.3%	75.9%	31.2%	76.4%	200%
C[C@@H](Oc1cc(-c2cnn(C3CCNCC3)c2)cnc1N)c1c(Cl)ccc(F)c1Cl [Crizotinib] + CN(NC(=O)CC(=O)NN(C)C(=S)c1ccccc1)C(=S)c1ccccc1 [STA4783] (first compound 0.2 µM, partner dose 0.006 µM)	467%	96.5%	226%	1520%	153%	2550%	99.4%	648%	382%	256%	65.7%	622%	190%	167%	87.6%	206%	252%	228%	312%
C=C(c1ccc(C(=O)O)cc1)c1cc2c(cc1C)C(C)(C)CCC2(C)C [Bexarotene] + COc1cc(Nc2ncc(F)c(Nc3ccc4c(n3)NC(=O)C(C)(C)O4)n2)cc(OC)c1OC [Tamatinib] (first compound 2 µM, partner dose 0.4 µM)	99.6%	73.4%	135%	130%	122%	408%	127%	102%	130%	118%	80.9%	74.5%	119%	38.2%	100%	34.8%	95.2%	19.3%	395%
C[C@@H](Oc1cc(-c2cnn(C3CCNCC3)c2)cnc1N)c1c(Cl)ccc(F)c1Cl [Crizotinib] + Cc1ccc(NC(=O)c2cccc(N(C)C)c2)cc1NC(=O)c1ccc(O)cc1 [ZM336372] (first compound 0.2 µM, partner dose 2 µM)	38.5%	192%	71.2%	46.8%	100%	90.7%	84.7%	120%	89.7%	120%	124%	88.3%	70.9%	59.8%	58%	39.8%	106%	122%	85.5%
CS(=O)(=O)CCNCc1ccc(-c2ccc3ncnc(Nc4ccc(OCc5cccc(F)c5)c(Cl)c4)c3c2)o1 [lapatinib] + Cn1cncc1[C@@](N)(c1ccc(Cl)cc1)c1ccc2c(c1)c(-c1cccc(Cl)c1)cc(=O)n2C [tipifarnib] (first compound 0.8 µM, partner dose 0.01 µM)	83.6%	94.4%	163%	75.3%	86.9%	122%	79.9%	185%	59.5%	109%	183%	123%	149%	122%	173%	80.8%	98.3%	72.3%	143%
O=C(O)c1ccc2c(c1)nc(Nc1cccc(Cl)c1)c1ccncc12 + CO[C@@H]1[C@H](N(C)C(=O)c2ccccc2)C[C@H]2O[C@]1(C)n1c3ccccc3c3c4c(c5c6ccccc6n2c5c31)C(=O)NC4 [Midostaurin] (first compound 0.4 µM, partner dose 0.08 µM)	79.4%	47.2%	145%	56.1%	221%	302%	128%	106%	268%	167%	95.3%	115%	306%	219%	47.7%	55.7%	41.8%	60.8%	61.6%
CN1CCN(c2ccc3nc(-c4c(N)c5c(F)cccc5[nH]c4=O)[nH]c3c2)CC1 [Dovitinib] + Cn1cncc1[C@@](N)(c1ccc(Cl)cc1)c1ccc2c(c1)c(-c1cccc(Cl)c1)cc(=O)n2C [tipifarnib] (first compound 0.1 µM, partner dose 0.01 µM)	235%	190%	223%	297%	139%	65%	119%	99.1%	263%	107%	162%	158%	132%	52.3%	52.1%	69.8%	59.5%	126%	141%
Cc1cc(Nc2cc(N3CCN(C)CC3)nc(/C=C/c3ccccc3)n2)n[nH]1 + CC1(C)NC(=O)N(c2ccc([N+](=O)[O-])c(C(F)(F)F)c2)C1=O [nilutamide] (first compound 0.04 µM, partner dose 1 µM)	107%	151%	102%	33.6%	130%	70%	162%	83.9%	51.6%	83.5%	124%	178%	82%	111%	62.1%	125%	128%	40.1%	169%
Nc1nc(F)nc2c1ncn2[C@@H]1O[C@H](CO)[C@@H](O)[C@@H]1O [fludarabine] + NC(=O)Nc1cc(-c2cccc(F)c2)sc1C(=O)N[C@H]1CCCNC1 [AZD7762] (first compound 0.2 µM, partner dose 0.02 µM)	1470%	209%	140%	10700%	124%	54.2%	504%	86.9%	87.9%	212%	165%	65.4%	98.5%	81.3%	93.8%	231%	187%	277%	76.9%
CC(C)C[C@H](NC(=O)[C@H](Cc1ccccc1)NC(=O)c1cnccn1)B(O)O [Bortezomib] + CC(C)(C)c1cnc(CSc2cnc(NC(=O)C3CCNCC3)s2)o1 [SNS-032] (first compound 0.001 µM, partner dose 0.01 µM)	584%	267%	148%	85.4%	91.6%	659%	132%	246%	284%	251%	65.1%	137%	106%	3050%	78.9%	34.1%	251%	166%	74.5%
O=C(O)c1ccc2c(c1)nc(Nc1cccc(Cl)c1)c1ccncc12 + Cc1cc(N2CCOCC2)cc2[nH]c(-c3c(NC[C@@H](O)c4cccc(Cl)c4)cc[nH]c3=O)nc12 [BMS536924] (first compound 0.4 µM, partner dose 0.2 µM)	93.7%	386%	179%	235%	271%	281%	102%	138%	156%	157%	135%	95.3%	103%	92.8%	98.1%	59.8%	109%	133%	67.5%

An excerpt from above, limited to cleaved PARP positive nuclei fraction (IPC-298).
Compound | cleaved PARP positive nuclei fraction (IPC-298)
CS(=O)(=O)CCNCc1ccc(-c2ccc3ncnc(Nc4ccc(OCc5cccc(F)c5)c(Cl)c4)c3c2)o1 [lapatinib] + Cn1cncc1[C@@](N)(c1ccc(Cl)cc1)c1ccc2c(c1)c(-c1cccc(Cl)c1)cc(=O)n2C [tipifarnib] (first compound 0.8 µM, partner dose 0.01 µM) | 173%
O=C(O)c1ccc2c(c1)nc(Nc1cccc(Cl)c1)c1ccncc12 + CO[C@@H]1[C@H](N(C)C(=O)c2ccccc2)C[C@H]2O[C@]1(C)n1c3ccccc3c3c4c(c5c6ccccc6n2c5c31)C(=O)NC4 [Midostaurin] (first compound 0.4 µM, partner dose 0.08 µM) | 47.7%
